Source: doi:10.1101/2019.12.16.876623 (bioRxiv, 2019)
These are yes or no findings as the source states them, for the method shown. For some assays here: In cells and extracts the contact can be indirect. Some results given as binding are weak or reduced against the parent protein; the word gives no strength. Where a sequence is shown, tags or fusion partners need not be part of it.

Experiments:
Cdc5-TAP (S. cerevisiae) = molecular target: T1, Cdc5-TAP (S. cerevisiae) (UniProt P32562); test: co-IP
T1 sequence: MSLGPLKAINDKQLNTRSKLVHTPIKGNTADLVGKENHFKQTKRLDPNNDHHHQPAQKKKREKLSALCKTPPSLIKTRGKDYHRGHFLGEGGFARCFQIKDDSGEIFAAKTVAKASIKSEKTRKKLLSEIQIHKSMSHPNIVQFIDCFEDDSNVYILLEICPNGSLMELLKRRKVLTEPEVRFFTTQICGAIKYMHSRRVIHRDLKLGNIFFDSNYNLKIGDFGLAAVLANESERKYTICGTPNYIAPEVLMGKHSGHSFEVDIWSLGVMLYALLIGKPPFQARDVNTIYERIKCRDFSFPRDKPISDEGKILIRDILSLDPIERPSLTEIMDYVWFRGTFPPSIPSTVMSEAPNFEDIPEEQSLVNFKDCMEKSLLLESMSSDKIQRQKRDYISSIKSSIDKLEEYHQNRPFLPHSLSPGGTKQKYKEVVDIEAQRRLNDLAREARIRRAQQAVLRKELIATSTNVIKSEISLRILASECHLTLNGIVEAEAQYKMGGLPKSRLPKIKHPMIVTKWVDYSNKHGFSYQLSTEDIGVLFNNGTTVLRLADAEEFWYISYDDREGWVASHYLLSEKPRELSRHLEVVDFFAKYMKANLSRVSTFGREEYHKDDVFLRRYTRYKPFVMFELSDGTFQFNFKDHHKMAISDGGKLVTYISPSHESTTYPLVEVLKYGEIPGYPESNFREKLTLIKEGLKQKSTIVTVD

Msh4-TAP (S. cerevisiae) = molecular target: T2, Msh4-TAP (S. cerevisiae) (UniProt P40965); test: co-IP
T2 sequence: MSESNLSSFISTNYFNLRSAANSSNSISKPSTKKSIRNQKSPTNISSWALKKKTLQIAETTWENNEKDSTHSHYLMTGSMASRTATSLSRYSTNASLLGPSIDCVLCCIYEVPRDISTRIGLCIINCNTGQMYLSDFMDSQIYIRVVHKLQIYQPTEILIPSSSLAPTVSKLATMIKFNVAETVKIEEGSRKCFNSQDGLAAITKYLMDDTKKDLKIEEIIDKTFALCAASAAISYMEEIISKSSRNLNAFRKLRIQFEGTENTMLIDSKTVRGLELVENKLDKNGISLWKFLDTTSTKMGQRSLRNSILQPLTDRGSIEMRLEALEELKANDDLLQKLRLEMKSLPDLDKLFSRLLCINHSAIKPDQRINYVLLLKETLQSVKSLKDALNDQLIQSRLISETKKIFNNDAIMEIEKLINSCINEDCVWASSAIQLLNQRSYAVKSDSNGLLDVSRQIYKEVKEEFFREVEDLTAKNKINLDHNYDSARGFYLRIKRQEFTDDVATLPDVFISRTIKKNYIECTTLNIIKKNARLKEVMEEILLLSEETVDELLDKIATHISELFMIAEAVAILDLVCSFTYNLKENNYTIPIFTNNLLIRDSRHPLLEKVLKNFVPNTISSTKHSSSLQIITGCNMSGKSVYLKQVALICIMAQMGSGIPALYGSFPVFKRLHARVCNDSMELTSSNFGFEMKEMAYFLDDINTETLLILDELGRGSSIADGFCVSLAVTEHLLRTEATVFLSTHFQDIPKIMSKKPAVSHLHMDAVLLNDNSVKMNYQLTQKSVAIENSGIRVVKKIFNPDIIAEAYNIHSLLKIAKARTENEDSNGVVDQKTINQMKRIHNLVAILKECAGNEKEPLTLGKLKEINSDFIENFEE

[1] = molecular target: T3, Pms1-Flag (Pms1 with an internal His6-Flag3 tag) (S. cerevisiae) (UniProt P14242); test: co-IP
T3 sequence: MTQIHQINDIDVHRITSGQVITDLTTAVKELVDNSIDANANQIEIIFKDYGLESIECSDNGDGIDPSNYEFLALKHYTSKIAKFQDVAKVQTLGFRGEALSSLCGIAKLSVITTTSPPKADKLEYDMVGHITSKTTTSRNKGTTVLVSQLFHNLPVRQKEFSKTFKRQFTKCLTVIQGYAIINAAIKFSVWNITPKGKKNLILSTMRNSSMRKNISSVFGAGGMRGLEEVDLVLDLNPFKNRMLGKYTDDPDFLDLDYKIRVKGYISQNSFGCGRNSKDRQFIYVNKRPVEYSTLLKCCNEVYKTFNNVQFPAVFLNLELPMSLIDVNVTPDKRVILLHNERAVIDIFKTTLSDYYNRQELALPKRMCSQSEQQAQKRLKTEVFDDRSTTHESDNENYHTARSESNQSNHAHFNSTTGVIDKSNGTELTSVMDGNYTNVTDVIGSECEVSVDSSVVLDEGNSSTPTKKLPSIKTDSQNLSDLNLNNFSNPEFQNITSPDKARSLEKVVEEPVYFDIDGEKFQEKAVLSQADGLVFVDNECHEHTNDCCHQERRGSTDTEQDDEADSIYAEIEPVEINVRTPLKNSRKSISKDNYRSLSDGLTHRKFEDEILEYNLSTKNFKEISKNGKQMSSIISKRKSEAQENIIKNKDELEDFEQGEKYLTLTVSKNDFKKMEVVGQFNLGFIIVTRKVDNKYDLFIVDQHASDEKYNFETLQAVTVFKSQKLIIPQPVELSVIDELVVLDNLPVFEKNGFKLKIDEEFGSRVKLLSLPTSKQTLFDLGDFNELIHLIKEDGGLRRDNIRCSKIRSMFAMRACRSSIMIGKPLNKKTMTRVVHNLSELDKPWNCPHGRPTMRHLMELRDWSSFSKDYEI

[2] = molecular target: T4, GAL4-BD-Exo1 (S. cerevisiae) (UniProt P39875); test: two-hybrid
T4 sequence: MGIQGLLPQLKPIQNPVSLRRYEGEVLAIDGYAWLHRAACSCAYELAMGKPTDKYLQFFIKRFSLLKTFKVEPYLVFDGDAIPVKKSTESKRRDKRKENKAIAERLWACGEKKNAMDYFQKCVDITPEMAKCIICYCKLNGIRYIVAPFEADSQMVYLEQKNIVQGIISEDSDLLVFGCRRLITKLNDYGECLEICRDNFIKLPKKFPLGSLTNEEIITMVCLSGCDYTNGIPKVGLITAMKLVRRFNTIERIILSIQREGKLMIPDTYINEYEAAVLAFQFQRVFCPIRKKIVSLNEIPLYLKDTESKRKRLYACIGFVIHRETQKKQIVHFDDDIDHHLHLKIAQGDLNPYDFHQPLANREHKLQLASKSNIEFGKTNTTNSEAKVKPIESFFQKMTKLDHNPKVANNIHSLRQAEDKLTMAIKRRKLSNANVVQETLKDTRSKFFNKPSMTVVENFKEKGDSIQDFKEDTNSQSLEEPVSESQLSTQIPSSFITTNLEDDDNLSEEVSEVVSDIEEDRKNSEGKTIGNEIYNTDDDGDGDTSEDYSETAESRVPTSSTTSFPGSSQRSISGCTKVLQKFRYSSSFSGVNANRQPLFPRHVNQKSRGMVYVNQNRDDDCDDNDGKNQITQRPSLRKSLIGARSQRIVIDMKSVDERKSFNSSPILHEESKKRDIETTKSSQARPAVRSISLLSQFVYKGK

B1: Mlh3-Myc (Mlh3 with an internal Myc8 or Myc18 tag) (protein, UniProt Q12083 1-715)
chain: MSQHIRKLDSDVSERLKSQACTVSLASAVREIVQNSVDAHATTIDVMIDLPNLSFAVYDDGIGLTRSDLNILATQNYTSKIRKMNDLVTMKTYGYRGDALYSISNVSNLFVCSKKKDYNSAWMRKFPSKSVMLSENTILPIDPFWKICPWSRTKSGTVVIVEDMLYNLPVRRRILKEEPPFKTFNTIKADMLQILVMHPMISLNVQYTDKLRINTEVLFRSKNITEGLTKHQQMSQVLRNVFGAIIPPDMLKKVSLKFNEYQIEGIISKMPVGLKDLQFIYINGRRYADSAFQGYVDSLFQAQDFGEKGMSLLKTKSVGKPYRSHPVFILDVRCPQTIDDLLQDPAKKIVKPSHIRTIEPLIVKTIRSFLTFQGYLTPDKSDSSFEIVNCSQKTATLPDSRIQISKRNQVLNSKMKIARINSYIGKPAVNGCRINNSTINYEKIKNIRIDGQKSRLRNKLSSRPYDSGFTEDYDSIGKTITDFSISRSVLAKYEVINQVDKKFILIRCLDQSNCPLLVLVDQHACDERIRLEELFYSLLTEVVTGTFVARDLKDCCIEVDRTEADLFKHYQSEFKKWGIGYETIEGTMETSLLEIKTLPEMLTSKYNGDKDYLKMVLLQHAHDLKDFKKLPMDLSHFENYTSVDKLYWWKYSSCVPTVFHEILNSKACRSAVMFGDELTRQECIILISKLSRCHNPFECAHGRPSMVPIAELK
In the case of B1, the binding (Cdc5-TAP (S. cerevisiae)) is reported as “binds”, the binding (Msh4-TAP (S. cerevisiae)) is reported as “binds weakly” and the binding [1] is reported as “binds”.

B2: Exo1-Myc (protein, UniProt P39875 1-702)
chain: T4 sequence
In the case of B2, the binding (Cdc5-TAP (S. cerevisiae)) is reported as “binds”.

B3: Mlh1 (two-hybrid fusion) (protein, UniProt P38920 1-769)
chain: MSLRIKALDASVVNKIAAGEIIISPVNALKEMMENSIDANATMIDILVKEGGIKVLQITDNGSGINKADLPILCERFTTSKLQKFEDLSQIQTYGFRGEALASISHVARVTVTTKVKEDRCAWRVSYAEGKMLESPKPVAGKDGTTILVEDLFFNIPSRLRALRSHNDEYSKILDVVGRYAIHSKDIGFSCKKFGDSNYSLSVKPSYTVQDRIRTVFNKSVASNLITFHISKVEDLNLESVDGKVCNLNFISKKSISPIFFINNRLVTCDLLRRALNSVYSNYLPKGNRPFIYLGIVIDPAAVDVNVHPTKREVRFLSQDEIIEKIANQLHAELSAIDTSRTFKASSISTNKPESLIPFNDTIESDRNRKSLRQAQVVENSYTTANSQLRKAKRQENKLVRIDASQAKITSFLSSSQQFNFEGSSTKRQLSEPKVTNVSHSQEAEKLTLNESEQPRDANTINDNDLKDQPKKKQKLGDYKVPSIADDEKNALPISKDGYIRVPKERVNVNLTSIKKLREKVDDSIHRELTDIFANLNYVGVVDEERRLAAIQHDLKLFLIDYGSVCYELFYQIGLTDFANFGKINLQSTNVSDDIVLYNLLSEFDELNDDASKEKIISKIWDMSSMLNEYYSIELVNDGLDNDLKSVKLKSLPLLLKGYIPSLVKLPFFIYRLGKEVDWEDEQECLDGILREIALLYIPDMVPKVDTSDASLSEDEKAQFINRKEHISSLLEHVLFPCIKRRFLAPRHILKDVVEIANLPDLYKVFERC
With B3 the binding [2] was “binds”.
